According to patent US8026262B2, “Chemical compounds” (GlaxoSmithKline LLC, priority 2006, dated 2011):
Some entries share one result that the patent states for a list of compounds.

Target: T1, human AR (Homo sapiens, UniProt P10275)
T1 sequence (P10275 560-920 limits assumed): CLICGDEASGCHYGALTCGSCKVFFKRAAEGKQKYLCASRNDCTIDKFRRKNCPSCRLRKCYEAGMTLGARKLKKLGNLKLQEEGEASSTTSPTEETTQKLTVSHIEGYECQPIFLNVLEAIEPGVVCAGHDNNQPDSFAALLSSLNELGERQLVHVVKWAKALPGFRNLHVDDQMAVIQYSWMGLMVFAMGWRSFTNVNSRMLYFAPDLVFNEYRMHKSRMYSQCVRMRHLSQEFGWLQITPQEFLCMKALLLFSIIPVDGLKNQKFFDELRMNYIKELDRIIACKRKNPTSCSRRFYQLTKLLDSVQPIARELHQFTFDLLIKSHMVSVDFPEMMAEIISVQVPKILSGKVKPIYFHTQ
Assay: AR functional assay (agonist mode), MMTV luciferase reporter in transfected CV-1 cells
Format: cell-based
Conditions: CV-1 cells transfected with human AR and MMTV luciferase, values said to be exemplary only

pIC50 in the agonist mode of the AR functional assay, ≥ 5.01:
CCc1nc2c(Cl)c(OC)ccc2n1Cc1noc(-c2cccc(C(F)(F)F)c2)n1 [Example 206, 4-Chloro-2-ethyl-5-(methyloxy)-1-({5-[3-(trifluoromethyl)phenyl]-1,2,4-oxadiazol-3-yl}methyl)-1H-benzimidazole]
CCCc1cc2c(C(F)(F)F)c(C#N)ccc2n1Cc1noc(-c2cccc(C#N)c2)n1 [Example 278, 1-{[5-(3-Cyanophenyl)-1,2,4-oxadiazol-3-yl]methyl}-2-propyl-4-(trifluoromethyl)-1H-indole-5-carbonitrile]
CCCc1cc2c(C#N)c(C#N)ccc2n1Cc1noc(-c2cc(F)cc(F)c2)n1 [Example 231, 1-{[5-(3,5-Difluorophenyl)-1,2,4-oxadiazol-3-yl]methyl}-2-propyl-1H-indole-4,5-dicarbonitrile]
Cc1cc2c(C(F)(F)F)c(C#N)ccc2n1Cc1coc(-c2cccc(C(F)(F)F)c2)n1 [Example 353, 2-Methyl-4-(trifluoromethyl)-1-({2-[3-(trifluoromethyl)phenyl]-1,3-oxazol-4-yl}methyl)-1H-indole-5-carbonitrile]
N#Cc1ccc2c(cc(CC(F)(F)F)n2Cc2noc(-c3cc(F)cc(F)c3)n2)c1C(F)(F)F [Example 376, 1-{[5-(3,5-Difluorophenyl)-1,2,4-oxadiazol-3-yl]methyl}-2-(2,2,2-trifluoroethyl)-4-(trifluoromethyl)-1H-indole-5-carbonitrile]
N#Cc1ccc2c(cc(C3CC3)n2Cc2ccc(-c3cc(F)cc(F)c3)o2)c1C(F)(F)F [Example 357, 2-Cyclopropyl-1-{[5-(3,5-difluorophenyl)-2-furanyl]methyl}-4-(trifluoromethyl)-1H-indole-5-carbonitrile]
CCCc1cc2c(C(F)(F)F)c(C#N)ccc2n1Cc1cc(-c2ccc(F)cc2)on1 [Example 257, 1-{[5-(4-Fluorophenyl)-3-isoxazolyl]methyl}-2-propyl-4-(trifluoromethyl)-1H-indole-5-carbonitrile]
N#Cc1ccc2c(cc(C3CC3)n2Cc2ccc(-c3cccc(C(F)(F)F)c3)o2)c1C(F)(F)F [Example 310, 2-Cyclopropyl-4-(trifluoromethyl)-1-({5-[3-(trifluoromethyl)phenyl]-2-furanyl}methyl)-1H-indole-5-carbonitrile]
CCCc1cc2c(C(F)(F)F)c(C#N)ccc2n1Cc1noc(-c2nc3c(cc2Cl)c(C)nn3C)n1 [Example 292, 1-{[5-(5-Chloro-1,3-dimethyl-1H-pyrazolo[3,4-b]pyridin-6-yl)-1,2,4-oxadiazol-3-yl]methyl}-2-propyl-4-(trifluoromethyl)-1H-indole-5-carbonitrile]
N#Cc1ccc2c(ccn2Cc2noc(-c3ccc(OC(F)(F)F)cc3)n2)c1C(F)(F)F [Example 83, 4-(Trifluoromethyl)-1-[(5-{4-[(trifluoromethyl)oxy]phenyl}-1,2,4-oxadiazol-3-yl)methyl]-1H-indole-5-carbonitrile]
Cc1cc2c(C(F)(F)F)c(C#N)ccc2n1Cc1noc(-c2ccnc(C(F)(F)F)c2)n1 [Example 265, 2-Methyl-4-(trifluoromethyl)-1-({5-[2-(trifluoromethyl)-4-pyridinyl]-1,2,4-oxadiazol-3-yl}methyl)-1H-indole-5-carbonitrile]
Cc1cc2cc([N+](=O)[O-])ccc2n1Cc1noc(-c2cccc(C(F)(F)F)c2)n1 [Example 3, 2-Methyl-5-nitro-1-({5-[3-(trifluoromethyl)phenyl]-1,2,4-oxadiazol-3-yl}methyl)-1H-indole]
N#Cc1ccc2c(ccn2Cc2noc(-c3c(F)ccc(Cl)c3F)n2)c1C(F)(F)F [Example 253, 1-{[5-(3-Chloro-2,6-difluorophenyl)-1,2,4-oxadiazol-3-yl]methyl}-4-(trifluoromethyl)-1H-indole-5-carbonitrile]
Cc1cc2c(Cl)c(C#N)ccc2n1Cc1noc(-c2cccc(C(F)(F)F)c2)n1 [Example 215, 4-Chloro-2-methyl-1-({5-[3-(trifluoromethyl)phenyl]-1,2,4-oxadiazol-3-yl}methyl)-1H-indole-5-carbonitrile]
N#Cc1ccc2c(cc(C3CC3)n2Cc2cnc(-c3cccc(C(F)(F)F)c3)o2)c1C(F)(F)F [Example 371, 2-Cyclopropyl-4-(trifluoromethyl)-1-({2-[3-(trifluoromethyl)phenyl]-1,3-oxazol-5-yl}methyl)-1H-indole-5-carbonitrile]
CCc1cc2c(C(F)(F)F)c(C#N)ccc2n1Cc1noc(-c2cc(F)cc(F)c2)n1 [Example 152, 1-{[5-(3,5-Difluorophenyl)-1,2,4-oxadiazol-3-yl]methyl}-2-ethyl-4-(trifluoromethyl)-1H-indole-5-carbonitrile]
